Taken from: PubChem BioAssay AID1259405 (NCATS, 2018)
Purpose: 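Silenced genes that increase secreted GFP made by CHO cells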 (primary screen). Cell system: Chinese hamster CHO-K1 ovary cells with stable secreted eGFP expression. Reagent: single siRNA against mouse genes, 0.8 pmol siRNA per well (2 µl of 400 nM stock). Timing: 3 days. Read-out: 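Per-well intracellular GFP measured by laser scanning cytometry, plus viability from ATP luminescence, each relative to plate median of non-targeting control wells, in %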. Reading the numbers: GFP, % of control: higher = more GFP per well, higher productivity. Rule for the call: 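a knock-down is called active if GFP reaches 120% or more of non-targeting control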.
Shown is a random part of about 50,000 deposited reagents. In the full data, about 4,000 (8%) are marked active. 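Mouse siRNA library applied to hamster cells; one well for each siRNA.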 Unmarked entries are inactive. Reagents against one gene are numbered here. Not all columns of the deposit are shown.

GFP, % of control, by gene and reagent
Sgsm3 (GeneID 105835): #1 97.2; #2 52; #3 28
Il20rb (GeneID 213208): #1 90.7; #2 51.2
Tas2r139 (GeneID 353148): #1 55.6; #2 66.9; #3 90.4
Ccdc120 (GeneID 54648): #1 79.1; #2 38.7; #3 65
Ssb (GeneID 20823): #1 93.6; #2 79.6
Thsd1 (GeneID 56229): #1 79.5; #2 107; #3 84.5
Slc17a2 (GeneID 218103): #1 87.4; #2 48.2; #3 92.7
Ada (GeneID 11486): #1 87.1; #2 103; #3 120
Nipbl (GeneID 71175): #1 236 (active); #2 62.6; #3 63; #4 83.2; #5 120 (active); #6 91.3
Oscar (GeneID 232790): #1 14.9; #2 69.2; #3 61.8
Ahr (GeneID 11622): #1 59.5; #2 70.6; #3 101
Spata4 (GeneID 69281): #1 110; #2 51.1; #3 78.8
Hsd3b2 (GeneID 15493): #1 89.9; #2 98.6; #3 73.4
Fnbp4 (GeneID 55935): #1 43.3; #2 78.7; #3 80.2
Prtg (GeneID 235472): #1 64.8; #2 75; #3 121 (active)
Pcgf5 (GeneID 76073): #1 66.7; #2 142 (active); #3 84
Wfdc15b (GeneID 192201): #1 70; #2 67.4; #3 65.2
Tsn (GeneID 22099): #1 99.3; #2 119

Not a retest: 16 of the entries above.
GFP, % of control, by gene and reagent
Ada (GeneID 11486): #2 103; #3 120
Nipbl (GeneID 71175): #1 236 (active); #2 62.6; #3 63; #4 83.2; #5 120 (active); #6 91.3
Oscar (GeneID 232790): #1 14.9; #2 69.2; #3 61.8
Ahr (GeneID 11622): #1 59.5; #2 70.6; #3 101
Spata4 (GeneID 69281): #1 110; #2 51.1

The listing continues.
GFP, % of control, by gene and reagent
St6galnac6 (GeneID 50935): #1 95.8; #2 150 (active); #3 94.5
Tbrg1 (GeneID 21376): #1 35.4; #2 57.9; #3 98.8
Stk38l (GeneID 232533): #1 137 (active); #2 86.1; #3 80.2
Fastkd1 (GeneID 320720): #1 133 (active); #2 113; #3 122 (active)
Magea6 (GeneID 17142): #1 63.9; #2 96.5; #3 64.3
Adam12 (GeneID 11489): #1 101; #2 94.5; #3 72.7
Rdh1 (GeneID 107605): #1 146 (active); #2 84.9; #3 41.9
Pip4p1 (GeneID 219024): #1 95.9; #2 112; #3 188 (active)
Bub1 (GeneID 12235): #1 74.1
Epha5 (GeneID 13839): #1 88.1; #2 49.1; #3 61.5
Inca1 (GeneID 103844): #1 45.6; #2 55.6; #3 68.1
Cldn10 (GeneID 58187): #1 70.3; #2 58.7; #3 111
Ackr1 (GeneID 13349): #1 102; #2 186 (active)
Ackr3 (GeneID 12778): #1 53.7; #2 73.4; #3 132 (active)
Zmat5 (GeneID 67178): #1 97.5; #2 84.8; #3 118
Csk (GeneID 12988): #1 63.4
Tafa5 (GeneID 106014): #1 54.7; #2 37.9; #3 77.6
Rnf10 (GeneID 50849): #1 112; #2 50.6; #3 72.1
Eapp (GeneID 66266): #1 78.6; #2 58.7; #3 59.4
Abi3 (GeneID 66610): #1 94.4; #2 102; #3 93.9
